Legend:
SU-DHL-4 cells = assay: CellTiter-Glo (CTG) viability assay, SU-DHL-4; format: cell-based; settings: Homo sapiens, SU-DHL-4, 168 h
Method: (§1) A panel of 6 lymphoma cell lines was included in the analysis (5 DLBCL and 1 Burkitt lymphoma). All cell lines were cultured in RPMI 1640 medium (Gibco) supplemented with 10%-20% FCS (Sigma) at 37 °C in 5% CO2.
(§2) To analyze direct cytotoxic and anti-proliferative effects on target cells, cell viability assays were performed using the CellTiter-Glo Kit (Promega), a luminescence assay for determination of viable cell number based on quantification of adenosine triphosphate (ATP) levels. […]
(§3) Cell viability was analyzed according to the manufacturer's protocol using the Tecan Infinite F500 plate reader. The relative viable cell count was calculated from the measured relative luminescence units (RLU) with the following equation: […]
(§4) For graphical illustration and IC50 determination, the mean values of triplicates (viability assay) or duplicates (CD19 expression) of the individual experiments were imported into GraphPad Prism software (version 8). […] IC50 curves were determined applying a non-linear regression curve fit model (sigmoidal dose response, variable slope). […]
(§5) The grand mean RLU values were calculated for. • untreated samples via e^μ • tafasitamab treated samples via e^(μ+α) • Compound 1 treated samples via e^(μ+β) • tafasitamab+Compound 1 treated samples via e^(μ+α+β+αβ) […]

SU-DHL-6 cells = assay: CellTiter-Glo (CTG) viability assay, SU-DHL-6; format: cell-based; settings: Homo sapiens, 168 h; SU-DHL-6, 7 days, compound alone
Method: as §1, §2, §3, §4, §5

IC50 (SU-DHL-4 cells): 792 nM
IC50 (SU-DHL-6 cells): 97.4 nM
Compound: CCN(c1cc(-c2ccc(CN3CCOCC3)cc2)cc(C(=O)NCc2c(C)cc(C)[nH]c2=O)c1C)C1CCOCC1 [tazemetostat, reference compound]

— patent US20260345771A1, “THERAPY COMPRISING ANTI-CD19 ANTIBODY AND EZH2 MODULATORS” (Incyte Corporation, priority 2022, published 2026)
